# ChEMBL document CHEMBL4316593 (Eur J Med Chem, 2019)
# The source gives many values for each of these; only a part stands here.
# What was measured:
# Assay type in all cases: cell-based
# Conditions in all cases: U-87MG ATCC
# [1] = Inhibition of RTK/PI3K/AKT/mTOR signaling in human U87 cells assessed as down regulation of CTNNB1 gene expression at cytotoxic IC50 measured after 48 hrs relative to control
# [2] = Inhibition of RTK/PI3K/AKT/mTOR signaling in human U87 cells assessed as up regulation of TRPV6 gene expression at cytotoxic IC50 measured after 48 hrs relative to control
# [3] = Inhibition of RTK/PI3K/AKT/mTOR signaling in human U87 cells assessed as up regulation of B-cell CLL/lymphoma 3 gene expression at cytotoxic IC50 measured after 48 hrs relative to control
# [4] = Inhibition of RTK/PI3K/AKT/mTOR signaling in human U87 cells assessed as down regulation of PLEKHF2 gene expression at cytotoxic IC50 measured after 48 hrs relative to control
# [5] = Inhibition of RTK/PI3K/AKT/mTOR signaling in human U87 cells assessed as up regulation of protein disulfide isomerase family A member 5 gene expression at cytotoxic IC50 measured after 48 hrs relative to control
# [6] = Inhibition of RTK/PI3K/AKT/mTOR signaling in human U87 cells assessed as down regulation of PITHD1 gene expression at cytotoxic IC50 measured after 48 hrs relative to control
# [7] = Inhibition of RTK/PI3K/AKT/mTOR signaling in human U87 cells assessed as down regulation of CCNA2 gene expression at cytotoxic IC50 measured after 48 hrs relative to control
# [8] = Inhibition of RTK/PI3K/AKT/mTOR signaling in human U87 cells assessed as down regulation of PSMA3 gene expression at cytotoxic IC50 measured after 48 hrs relative to control
# [9] = Inhibition of RTK/PI3K/AKT/mTOR signaling in human U87 cells assessed as up regulation of regulator of G-protein signaling 16 gene expression at cytotoxic IC50 measured after 48 hrs relative to control
# [10] = Inhibition of RTK/PI3K/AKT/mTOR signaling in human U87 cells assessed as up regulation of CDCP1 gene expression at cytotoxic IC50 measured after 48 hrs relative to control
# [11] = Inhibition of RTK/PI3K/AKT/mTOR signaling in human U87 cells assessed as down regulation of TESK1 gene expression at cytotoxic IC50 measured after 48 hrs relative to control
# [12] = Inhibition of RTK/PI3K/AKT/mTOR signaling in human U87 cells assessed as up regulation of NOP53 gene expression at cytotoxic IC50 measured after 48 hrs relative to control
# [13] = Inhibition of RTK/PI3K/AKT/mTOR signaling in human U87 cells assessed as down regulation of ODC1 gene expression at cytotoxic IC50 measured after 48 hrs relative to control
# [14] = Inhibition of RTK/PI3K/AKT/mTOR signaling in human U87 cells assessed as up regulation of poly(A) RNA polymerase D7, non-canonical gene expression at cytotoxic IC50 measured after 48 hrs relative to control
# [15] = Inhibition of RTK/PI3K/AKT/mTOR signaling in human U87 cells assessed as down regulation of ASB6 gene expression at cytotoxic IC50 measured after 48 hrs relative to control
# [16] = Inhibition of RTK/PI3K/AKT/mTOR signaling in human U87 cells assessed as up regulation of HLF gene expression at cytotoxic IC50 measured after 48 hrs relative to control
# [17] = Inhibition of RTK/PI3K/AKT/mTOR signaling in human U87 cells assessed as up regulation of GTSF1 gene expression at cytotoxic IC50 measured after 48 hrs relative to control
# [18] = Inhibition of RTK/PI3K/AKT/mTOR signaling in human U87 cells assessed as up regulation of WDR6 gene expression at cytotoxic IC50 measured after 48 hrs relative to control
# [19] = Inhibition of RTK/PI3K/AKT/mTOR signaling in human U87 cells assessed as up regulation of actin binding LIM protein 1 gene expression at cytotoxic IC50 measured after 48 hrs relative to control
# [20] = Inhibition of RTK/PI3K/AKT/mTOR signaling in human U87 cells assessed as down regulation of PEG10 gene expression at cytotoxic IC50 measured after 48 hrs relative to control
# [21] = Inhibition of RTK/PI3K/AKT/mTOR signaling in human U87 cells assessed as up regulation of transcription factor 7 like 2 gene expression at cytotoxic IC50 measured after 48 hrs relative to control
# [22] = Inhibition of RTK/PI3K/AKT/mTOR signaling in human U87 cells assessed as up regulation of adenylate kinase 2 gene expression at cytotoxic IC50 measured after 48 hrs relative to control
# [23] = Inhibition of RTK/PI3K/AKT/mTOR signaling in human U87 cells assessed as up regulation of CXXC finger protein 5 gene expression at cytotoxic IC50 measured after 48 hrs relative to control
# [24] = Inhibition of RTK/PI3K/AKT/mTOR signaling in human U87 cells assessed as down regulation of CDCA2 gene expression at cytotoxic IC50 measured after 48 hrs relative to control
# [25] = Inhibition of RTK/PI3K/AKT/mTOR signaling in human U87 cells assessed as down regulation of ZBTB21 gene expression at cytotoxic IC50 measured after 48 hrs relative to control
# [26] = Inhibition of RTK/PI3K/AKT/mTOR signaling in human U87 cells assessed as down regulation of BTG1 gene expression at cytotoxic IC50 measured after 48 hrs relative to control
# [27] = Inhibition of RTK/PI3K/AKT/mTOR signaling in human U87 cells assessed as down regulation of GPATCH2L gene expression at cytotoxic IC50 measured after 48 hrs relative to control
# [28] = Inhibition of RTK/PI3K/AKT/mTOR signaling in human U87 cells assessed as down regulation of NCKAP1 gene expression at cytotoxic IC50 measured after 48 hrs relative to control
# [29] = Inhibition of RTK/PI3K/AKT/mTOR signaling in human U87 cells assessed as up regulation of serine and arginine rich splicing factor 8 gene expression at cytotoxic IC50 measured after 48 hrs relative to control
# [30] = Inhibition of RTK/PI3K/AKT/mTOR signaling in human U87 cells assessed as up regulation of interferon regulatory factor 2 binding protein 2 gene expression at cytotoxic IC50 measured after 48 hrs relative to control
# [31] = Inhibition of RTK/PI3K/AKT/mTOR signaling in human U87 cells assessed as down regulation of HSP90AB1 gene expression at cytotoxic IC50 measured after 48 hrs relative to control
# [32] = Inhibition of RTK/PI3K/AKT/mTOR signaling in human U87 cells assessed as down regulation of BRPF1 gene expression at cytotoxic IC50 measured after 48 hrs relative to control
structure (smiles),measurement,setting,value
CC(=O)C(=NNc1ccccc1C#N)C(C)=O,log2FC,[1],-0.667
same,log2FC,[2],2.88
same,log2FC,[3],0.984
same,log2FC,[4],-0.743
same,log2FC,[5],0.938
same,log2FC,[6],-1.33
same,log2FC,[7],-1.07
same,log2FC,[8],-0.584
same,log2FC,[9],0.843
same,log2FC,[10],0.635
same,log2FC,[11],-1.03
same,log2FC,[12],0.474
same,log2FC,[13],-0.988
same,log2FC,[14],0.826
same,log2FC,[15],-1.05
same,log2FC,[16],2.11
same,log2FC,[17],0.531
same,log2FC,[18],0.498
same,log2FC,[19],0.682
same,log2FC,[20],-1.38
same,log2FC,[21],1.1
same,log2FC,[22],1.05
same,log2FC,[23],1.23
same,log2FC,[24],-1.19
same,log2FC,[25],-0.603
same,log2FC,[26],-0.512
same,log2FC,[27],-0.718
same,log2FC,[28],-0.577
same,log2FC,[29],0.838
same,log2FC,[30],0.679
same,log2FC,[31],-0.925
same,log2FC,[32],-1.19
